Results are given in words; binding and its absence hold for the method and conditions named. Some binding calls cover weakened binding; strength is not graded here.
Tests used:
[1] = target: T1, IL-17BR (as injected in the Biacore competition assay) (Homo sapiens (Human)) (UniProt Q9NRM6); test: Biacore competition assay (figure legend)
T1 sequence: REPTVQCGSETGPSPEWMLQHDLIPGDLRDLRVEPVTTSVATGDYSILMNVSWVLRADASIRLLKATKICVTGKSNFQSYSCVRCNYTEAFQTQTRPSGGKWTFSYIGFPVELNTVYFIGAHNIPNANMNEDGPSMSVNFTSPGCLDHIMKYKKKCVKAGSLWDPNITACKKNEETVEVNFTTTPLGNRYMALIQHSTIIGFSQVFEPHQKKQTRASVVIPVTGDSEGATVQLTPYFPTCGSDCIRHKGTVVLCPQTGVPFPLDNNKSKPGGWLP

[2] = target: T1, IL-17BR (as injected in the Biacore competition assay) (Homo sapiens (Human)); test: Biacore, IL-25 injected over IL-17BR held by captured hD9030
[3] = target: T1, IL-17BR (as injected in the Biacore competition assay) (Homo sapiens (Human)); test: Biacore 2000 competition assay; IL-25 injected over IL-17BR that is held by hD9030 captured on a Protein A chip

Measured: binding

B1: IL-25 (ligand)
chain: YSHWPSCCPSKGQDTSEELLRWSTVPVPPLEPARPNRHPESCRASEDGPLNSRAISPWRYELDRDLNRLPQDLYHARCLCPHCVSLQTGSHMDPRGNSELLYHNQTVFYRRPCHGEKGTHKGYCLERRLYRVSLACVCVRPRVMG
binds: [1] | [2] | [3]

— patent US20220041740A1 (LIFEARC, published 2022)
